{"source": "the supplement of paper PMC8866396", "note": "± gives the standard deviation of the averaged measurements. The list shows a part of the results. This data set is noisy: repeats of one test often differ as much as different tests do.", "data": [{"test_system": "IL-6-GFP PC-9", "assay": "IL-6-GFP fluorescence relative to DMSO control (fraction of control); higher = more IL-6-GFP expression", "details": "compound concentration: 10 uM; treatment time: 48 h", "method": "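IL-6-GFP-overexpressing PC-9 and PC-9GR EGFR-mutant lung cancer cells (3000 cells/well, 96-well) were treated for 48 h with each compound of the Selleck L2000 library at 10 uM. IL-6-GFP fluorescence was read on a high-content screening system, and viability by CCK-8 absorbance on a parallel plate set. Each value was normalised as compound well / DMSO control well; two independent replicates.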", "values": [{"molecule": "CC(Oc1cc(-c2cnn(C3CCNCC3)c2)cnc1N)c1c(Cl)ccc(F)c1Cl", "note": "(centres undefined)", "IL-6-GFP fluorescence": "0.983 ± 0.21"}, {"molecule": "O=c1[nH]c(=O)n(C2CC(O)C(CO)O2)cc1F", "note": "(centres undefined) [Floxuridine]", "IL-6-GFP fluorescence": "0.637 ± 0.18"}, {"molecule": "Cc1coc2c1C(=O)C(=O)c1c-2ccc2c1CCCC2(C)C", "note": "[Tanshinone IIA]", "IL-6-GFP fluorescence": "0.858 ± 0.047"}, {"molecule": "CCc1nc(C(N)=O)c(Nc2ccc(N3CCC(N4CCN(C)CC4)CC3)c(OC)c2)nc1NC1CCOCC1", "note": "[Gilteritinib (ASP2215)]", "IL-6-GFP fluorescence": "0.827 ± 0.31"}, {"molecule": "NC(CCC(=O)NC(CS)C(=O)NCC(=O)O)C(=O)O", "note": "(centres undefined) [Glutathione]", "IL-6-GFP fluorescence": "0.799 ± 0.096"}, {"molecule": "CC(C)C(=O)OCC(=O)C12OC(C3CCCCC3)OC1CC1C3CCC4=CC(=O)C=CC4(C)C3C(O)CC12C", "note": "(centres undefined) [Ciclesonide]", "IL-6-GFP fluorescence": "1.07 ± 0.29"}, {"molecule": "CN(C)C/C=C/C(=O)Nc1cc2c(Nc3ccc(F)c(Cl)c3)ncnc2cc1OC1CCOC1.O=C(O)/C=C\\C(=O)O.O=C(O)/C=C\\C(=O)O", "note": "(centres undefined) [Afatinib (BIBW2992) Dimaleate]", "IL-6-GFP fluorescence": "1.26 ± 0.085"}, {"molecule": "COc1ccnc(CS(=O)c2nc3ccc(-n4cccc4)cc3[nH]2)c1C", "note": "(centres undefined) [Ilaprazole]", "IL-6-GFP fluorescence": "0.94 ± 0.27"}, {"molecule": "Nc1ncn(C2OC(CO)C(O)C2O)c(=O)n1", "note": "(centres undefined) [Azacitidine]", "IL-6-GFP fluorescence": "1.04 ± 0.25"}, {"molecule": "C[S+](C)CCC(N)C(=O)O.[Cl-]", "note": "(centres undefined)", "IL-6-GFP fluorescence": "0.844 ± 0.18"}, {"molecule": "CC(=O)OC(C)OC(=O)C(C)c1ccc(-c2ccccc2)c(F)c1", "note": "(centres undefined) [Flurbiprofen Axetil]", "IL-6-GFP fluorescence": "0.693 ± 0.17"}, {"molecule": "C=C1C(=O)OC2C1CCC(=C)C1CCC(=C)C12", "note": "(centres undefined) [Dehydrocostus Lactone]", "IL-6-GFP fluorescence": "0.767 ± 0.35"}, {"molecule": "CNC(=O)C(NC(=O)C(CC(C)C)C(O)C(=O)NO)C(C)(C)C", "note": "(centres undefined) [Marimastat (BB-2516)]", "IL-6-GFP fluorescence": "0.908 ± 0.071"}, {"molecule": "Cc1cccn2c(=O)c(-c3nnn[n-]3)cnc12.[K+]", "note": "[Pemirolast potassium]", "IL-6-GFP fluorescence": "0.88499 ± 0.00011"}, {"molecule": "Cn1c(=O)cc(N2CCCC(N)C2)n(Cc2ccccc2C#N)c1=O", "note": "(centres undefined) [Alogliptin(SYK-322)benzoate]", "IL-6-GFP fluorescence": "0.721 ± 0.31"}, {"molecule": "Cc1ccc(C2OC(CO)C(O)C(O)C2O)cc1Cc1ccc(-c2ccc(F)cc2)s1", "note": "(centres undefined) [Canagliflozin]", "IL-6-GFP fluorescence": "0.9 ± 0.25"}, {"molecule": "CCc1ccc(Cc2ccc3c(c2)C2(OC3)OC(CO)C(O)C(O)C2O)cc1.O", "note": "(centres undefined) [Tofogliflozin(CSG 452)]", "IL-6-GFP fluorescence": "0.969 ± 0.03"}, {"molecule": "COc1cc2c(Nc3ccc(Br)cc3F)ncnc2cc1OCC1CCN(C)CC1", "note": "[Vandetanib (ZD6474)]", "IL-6-GFP fluorescence": "0.45 ± 0.19"}, {"molecule": "CC(=O)c1c(C)c2cnc(Nc3ccc(N4CCNCC4)cn3)nc2n(C2CCCC2)c1=O.Cl", "IL-6-GFP fluorescence": "0.826 ± 0.019"}, {"molecule": "O=NN(CCCl)C(=O)NCCCl", "note": "[Carmustine]", "IL-6-GFP fluorescence": "0.728 ± 0.13"}, {"molecule": "COc1c2occc2c(OC)c2c(=O)cc(C)oc12", "note": "[Khellin]", "IL-6-GFP fluorescence": "0.734 ± 0.08"}, {"molecule": "CC(C)=CCOc1ccc(/C=C/C(=O)c2ccc(OCC=C(C)C)cc2OCC(=O)O)cc1", "note": "[Sofalcone]", "IL-6-GFP fluorescence": "0.774 ± 0.14"}, {"molecule": "CC1CC2C3CC(F)C4=CC(=O)C=CC4(C)C3(F)C(O)CC2(C)C1(O)C(=O)CO", "note": "(centres undefined) [Diflorasone]", "IL-6-GFP fluorescence": "0.964 ± 0.054"}, {"molecule": "COc1ccc2c(c1)nc(S(=O)Cc1ncc(C)c(OC)c1C)[n]2[Na]", "note": "(centres undefined) [Omeprazole Sodium]", "IL-6-GFP fluorescence": "0.836 ± 0.12"}, {"molecule": "CN1C(C(=O)Nc2ccccn2)=C(O)c2sc(Cl)cc2S1(=O)=O", "note": "[Lornoxicam]", "IL-6-GFP fluorescence": "0.625 ± 0.21"}, {"molecule": "CN(C)N=Nc1[nH]cnc1C(N)=O", "note": "[Dacarbazine]", "IL-6-GFP fluorescence": "0.951 ± 0.076"}, {"molecule": "CNC(=O)c1c(C)oc2cc(Oc3ncnc4cc(OC)c(OC)cc34)ccc12", "note": "[Fruquintinib]", "IL-6-GFP fluorescence": "0.822 ± 0.14"}, {"molecule": "Cc1c(Cl)cccc1Nc1ncccc1C(=O)O", "note": "[Clonixin]", "IL-6-GFP fluorescence": "0.789 ± 0.072"}, {"molecule": "CCC1(O)CC2CN(CCc3c([nH]c4ccccc34)C(C(=O)OC)(c3cc4c(cc3OC)N(C=O)C3C(O)(C(=O)OC)C(OC(C)=O)C5(CC)C=CCN6CCC43C65)C2)C1", "note": "(centres undefined) [Vincristine]", "IL-6-GFP fluorescence": "0.781 ± 0.3"}, {"molecule": "COc1c2occc2cc2ccc(=O)oc12", "note": "[Methoxsalen]", "IL-6-GFP fluorescence": "0.926 ± 0.067"}, {"molecule": "CCOC(=O)c1c(N)sc2c1CCN(Cc1ccccc1)C2.Cl", "note": "[Tinoridine hydrochloride]", "IL-6-GFP fluorescence": "1.15 ± 0.093"}, {"molecule": "CC(C)Cn1cnc2c(N)nc3ccccc3c21", "note": "[Imiquimod]", "IL-6-GFP fluorescence": "1.26 ± 0.23"}, {"molecule": "CC(=O)OCC1OC(n2ccc(=O)[nH]c2=O)C(OC(C)=O)C1OC(C)=O", "note": "(centres undefined) [uridine triacetate]", "IL-6-GFP fluorescence": "0.786 ± 0.032"}, {"molecule": "Cl.Cl.O=C(O)COCCN1CCN(C(c2ccccc2)c2ccc(Cl)cc2)CC1", "note": "(centres undefined) [Cetirizine DiHCl]", "IL-6-GFP fluorescence": "0.711 ± 0.38"}, {"molecule": "Cc1ccc(C(=O)Nc2ccc(CN3CCN(C)CC3)c(C(F)(F)F)c2)cc1C#Cc1cnc2cccnn12", "IL-6-GFP fluorescence": "2.59 ± 0.28"}, {"molecule": "CN(C(=O)c1c(O)c2ccccc2n(C)c1=O)c1ccccc1", "note": "[Roquinimex]", "IL-6-GFP fluorescence": "0.902 ± 0.045"}, {"molecule": "C=CC1=C(C)c2cc3nc(cc4[nH]c(cc5[nH]c(cc1n2)c(C)c5C=C)c(C)c4CCC(=O)O)C(CCC(=O)O)=C3C", "note": "[Protoporphyrin IX]", "IL-6-GFP fluorescence": "0.534 ± 0.16"}, {"molecule": "CS(=O)(=O)c1ccc(C(=O)Nc2ccc(Cl)c(-c3ccccn3)c2)c(Cl)c1", "note": "[Vismodegib (GDC-0449)]", "IL-6-GFP fluorescence": "0.931 ± 0.1"}, {"molecule": "CC12CCC3c4ccc(O)cc4CC(CCCCCCCCCS(=O)CCCC(F)(F)C(F)(F)F)C3C1CCC2O", "note": "(centres undefined) [Fulvestrant]", "IL-6-GFP fluorescence": "0.969 ± 0.1"}]}]}
